# Results taken from patent publication US7371411B2 (Novelos Therapeutics, Inc., priority 1998, dated 2008).
# Test: general procedure: solution-phase peptide synthesis; N-hydroxysuccinimide ester
# Details: oxidative folding step, disodium salt
substance,measurement,value
bis-(L-phenylalanyl-γ-L-glutamyl)-L-cysteinyl-bis-glycine Disodium Salt,oxidative folding yield,95%
